From paper PMC9975134
These are yes or no findings as the source states them, for the method shown. In cells and extracts the contact can be indirect. Some entries that bind do so weakly or less than the wild type.

Sequences of proteins named here, by UniProt entry; tags and fusion partners are left off. A change or cut given only in a name is not applied to a line headed by its entry. Residues count along the entry.
UniProt Q9Y6Q9: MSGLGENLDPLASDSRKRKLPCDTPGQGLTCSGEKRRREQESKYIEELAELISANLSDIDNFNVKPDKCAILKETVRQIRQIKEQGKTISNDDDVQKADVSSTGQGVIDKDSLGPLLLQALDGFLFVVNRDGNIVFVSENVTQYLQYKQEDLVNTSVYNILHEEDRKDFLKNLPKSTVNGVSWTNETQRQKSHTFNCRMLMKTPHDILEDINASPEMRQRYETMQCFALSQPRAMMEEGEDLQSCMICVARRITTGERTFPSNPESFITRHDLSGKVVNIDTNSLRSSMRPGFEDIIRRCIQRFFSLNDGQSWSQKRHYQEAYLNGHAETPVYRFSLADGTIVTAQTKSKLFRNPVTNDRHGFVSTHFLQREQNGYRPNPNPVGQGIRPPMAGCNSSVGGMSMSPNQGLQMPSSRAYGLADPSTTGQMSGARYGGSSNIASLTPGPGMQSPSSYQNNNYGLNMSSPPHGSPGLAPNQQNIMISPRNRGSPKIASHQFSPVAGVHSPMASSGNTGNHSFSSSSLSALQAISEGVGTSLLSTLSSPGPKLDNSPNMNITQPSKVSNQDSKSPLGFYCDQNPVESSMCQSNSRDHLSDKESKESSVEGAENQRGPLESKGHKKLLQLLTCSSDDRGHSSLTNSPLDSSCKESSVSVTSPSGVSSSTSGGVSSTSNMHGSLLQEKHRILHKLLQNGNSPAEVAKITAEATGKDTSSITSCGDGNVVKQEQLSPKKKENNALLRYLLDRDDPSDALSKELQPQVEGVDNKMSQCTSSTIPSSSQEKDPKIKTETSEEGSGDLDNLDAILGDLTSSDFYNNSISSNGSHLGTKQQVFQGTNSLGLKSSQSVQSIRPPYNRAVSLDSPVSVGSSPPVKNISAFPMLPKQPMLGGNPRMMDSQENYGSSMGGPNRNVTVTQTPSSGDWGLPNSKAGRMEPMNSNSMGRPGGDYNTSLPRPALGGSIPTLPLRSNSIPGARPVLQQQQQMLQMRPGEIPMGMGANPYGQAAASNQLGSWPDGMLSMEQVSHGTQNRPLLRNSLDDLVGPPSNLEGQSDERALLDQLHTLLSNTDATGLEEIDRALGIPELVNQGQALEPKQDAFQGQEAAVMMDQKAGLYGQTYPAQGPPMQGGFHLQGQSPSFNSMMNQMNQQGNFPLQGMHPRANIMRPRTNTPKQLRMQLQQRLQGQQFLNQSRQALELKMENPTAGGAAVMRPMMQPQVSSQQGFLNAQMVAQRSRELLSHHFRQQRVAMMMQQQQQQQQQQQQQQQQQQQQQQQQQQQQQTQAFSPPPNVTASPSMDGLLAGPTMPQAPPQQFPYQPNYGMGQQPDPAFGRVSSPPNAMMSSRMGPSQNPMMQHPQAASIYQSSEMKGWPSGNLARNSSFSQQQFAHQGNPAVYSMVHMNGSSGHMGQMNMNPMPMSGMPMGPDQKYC
UniProt P19838, residues 1-433: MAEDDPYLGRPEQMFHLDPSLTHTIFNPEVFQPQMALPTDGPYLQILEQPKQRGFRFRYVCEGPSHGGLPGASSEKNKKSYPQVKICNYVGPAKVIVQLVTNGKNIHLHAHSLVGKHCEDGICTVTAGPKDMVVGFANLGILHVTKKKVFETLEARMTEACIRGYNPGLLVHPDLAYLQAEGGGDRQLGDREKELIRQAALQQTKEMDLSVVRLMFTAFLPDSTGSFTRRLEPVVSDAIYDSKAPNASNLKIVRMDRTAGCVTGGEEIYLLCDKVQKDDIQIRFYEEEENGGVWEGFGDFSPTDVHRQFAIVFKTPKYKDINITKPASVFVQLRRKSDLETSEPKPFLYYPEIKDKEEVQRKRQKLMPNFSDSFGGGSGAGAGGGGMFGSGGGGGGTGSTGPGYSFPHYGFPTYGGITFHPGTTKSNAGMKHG
UniProt Q04206: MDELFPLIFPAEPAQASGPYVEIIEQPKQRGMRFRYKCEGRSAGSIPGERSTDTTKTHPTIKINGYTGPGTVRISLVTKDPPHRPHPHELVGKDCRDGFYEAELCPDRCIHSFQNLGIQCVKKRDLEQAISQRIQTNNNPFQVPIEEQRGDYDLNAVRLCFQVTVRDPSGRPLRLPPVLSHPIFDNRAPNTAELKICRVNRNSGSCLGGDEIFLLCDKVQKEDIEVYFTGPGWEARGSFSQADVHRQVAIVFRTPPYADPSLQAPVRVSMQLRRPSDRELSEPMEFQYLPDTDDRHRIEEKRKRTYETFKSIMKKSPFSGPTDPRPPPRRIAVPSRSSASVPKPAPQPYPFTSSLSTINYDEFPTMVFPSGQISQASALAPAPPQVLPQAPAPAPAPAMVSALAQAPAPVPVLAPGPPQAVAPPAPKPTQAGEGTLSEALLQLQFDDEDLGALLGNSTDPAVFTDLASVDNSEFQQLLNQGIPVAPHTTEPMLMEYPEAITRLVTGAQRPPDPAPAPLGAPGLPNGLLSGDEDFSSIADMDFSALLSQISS
UniProt Q09472: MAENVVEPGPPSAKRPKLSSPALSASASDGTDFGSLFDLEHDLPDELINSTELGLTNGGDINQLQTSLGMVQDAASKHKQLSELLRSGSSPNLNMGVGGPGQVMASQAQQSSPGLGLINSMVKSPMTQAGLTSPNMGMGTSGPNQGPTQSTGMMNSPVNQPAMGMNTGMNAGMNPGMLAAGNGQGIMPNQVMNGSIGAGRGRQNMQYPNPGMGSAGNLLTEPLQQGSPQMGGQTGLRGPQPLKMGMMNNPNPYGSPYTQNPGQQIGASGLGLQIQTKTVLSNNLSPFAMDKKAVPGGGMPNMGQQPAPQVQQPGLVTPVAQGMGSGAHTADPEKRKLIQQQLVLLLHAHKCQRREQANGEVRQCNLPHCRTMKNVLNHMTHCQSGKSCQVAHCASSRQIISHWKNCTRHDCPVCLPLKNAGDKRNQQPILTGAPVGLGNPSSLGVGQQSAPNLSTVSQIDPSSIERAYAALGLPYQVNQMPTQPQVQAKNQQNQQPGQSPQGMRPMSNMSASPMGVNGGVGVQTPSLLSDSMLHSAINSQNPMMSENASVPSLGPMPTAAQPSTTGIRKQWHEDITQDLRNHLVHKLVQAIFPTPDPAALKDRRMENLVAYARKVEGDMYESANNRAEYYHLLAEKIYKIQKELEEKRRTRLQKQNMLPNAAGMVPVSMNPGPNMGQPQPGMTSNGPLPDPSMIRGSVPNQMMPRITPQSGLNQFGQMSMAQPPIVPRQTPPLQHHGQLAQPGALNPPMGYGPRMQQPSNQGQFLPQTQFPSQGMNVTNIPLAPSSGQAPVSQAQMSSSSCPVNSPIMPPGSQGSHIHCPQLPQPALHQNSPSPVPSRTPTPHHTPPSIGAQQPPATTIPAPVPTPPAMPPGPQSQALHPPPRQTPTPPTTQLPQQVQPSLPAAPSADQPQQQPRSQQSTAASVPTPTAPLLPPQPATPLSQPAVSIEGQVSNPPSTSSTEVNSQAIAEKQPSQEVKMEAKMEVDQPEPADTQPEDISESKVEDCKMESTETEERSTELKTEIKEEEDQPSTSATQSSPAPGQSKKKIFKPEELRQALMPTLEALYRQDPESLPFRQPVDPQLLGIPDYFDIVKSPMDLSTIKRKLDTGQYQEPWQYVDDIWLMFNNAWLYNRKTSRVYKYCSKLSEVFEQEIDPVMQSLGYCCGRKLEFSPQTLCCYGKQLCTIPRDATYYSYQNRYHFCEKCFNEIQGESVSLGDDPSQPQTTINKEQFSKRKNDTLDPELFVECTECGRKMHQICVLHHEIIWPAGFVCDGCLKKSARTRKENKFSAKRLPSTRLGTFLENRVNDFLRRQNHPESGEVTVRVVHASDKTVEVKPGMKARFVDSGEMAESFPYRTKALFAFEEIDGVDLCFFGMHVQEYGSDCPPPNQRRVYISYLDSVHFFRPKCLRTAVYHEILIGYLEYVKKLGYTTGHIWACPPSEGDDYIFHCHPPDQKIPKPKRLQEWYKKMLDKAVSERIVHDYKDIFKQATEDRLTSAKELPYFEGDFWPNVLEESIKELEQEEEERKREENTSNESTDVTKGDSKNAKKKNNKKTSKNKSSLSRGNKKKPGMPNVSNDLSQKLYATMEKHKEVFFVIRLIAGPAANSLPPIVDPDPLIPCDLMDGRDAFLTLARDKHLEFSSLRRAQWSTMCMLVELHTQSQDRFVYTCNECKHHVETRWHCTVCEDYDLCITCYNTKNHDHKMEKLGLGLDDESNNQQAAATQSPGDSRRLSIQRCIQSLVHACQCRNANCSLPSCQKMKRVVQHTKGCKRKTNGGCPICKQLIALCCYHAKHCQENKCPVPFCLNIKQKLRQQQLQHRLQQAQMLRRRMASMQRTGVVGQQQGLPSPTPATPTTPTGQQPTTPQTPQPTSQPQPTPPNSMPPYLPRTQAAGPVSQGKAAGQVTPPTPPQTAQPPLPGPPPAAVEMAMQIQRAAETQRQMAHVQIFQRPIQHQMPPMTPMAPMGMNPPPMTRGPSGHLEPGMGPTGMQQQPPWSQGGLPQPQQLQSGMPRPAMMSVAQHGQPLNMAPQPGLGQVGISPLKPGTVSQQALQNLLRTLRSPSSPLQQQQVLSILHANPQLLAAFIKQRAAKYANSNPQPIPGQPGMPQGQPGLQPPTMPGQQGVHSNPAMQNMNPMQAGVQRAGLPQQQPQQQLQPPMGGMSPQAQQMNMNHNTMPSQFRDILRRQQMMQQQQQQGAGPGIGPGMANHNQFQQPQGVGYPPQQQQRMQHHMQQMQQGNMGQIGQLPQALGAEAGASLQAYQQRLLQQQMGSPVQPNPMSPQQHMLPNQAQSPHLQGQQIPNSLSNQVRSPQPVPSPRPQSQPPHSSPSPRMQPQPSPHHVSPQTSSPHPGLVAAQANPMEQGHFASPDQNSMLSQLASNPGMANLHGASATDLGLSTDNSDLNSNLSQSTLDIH

Columns and labels:
[1] = target: Flag-NCOA3 (UniProt Q9Y6Q9); assay: co-IP; Flag-tagged and Myc-tagged plasmids cotransfected into T47D cells, 48 h; lysis in RIPA buffer with protease inhibitors; immunoprecipitation with anti-Flag agarose; blots with anti-Flag and anti-Myc
[2] = target: NFKB1/p50 (NF-κB subunit), endogenous (human (endogenous in T47D)) (UniProt P19838); assay: co-IP; endogenous proteins; cell extracts (MCF-7 by the text, the same T47D extracts by the legend) immunoprecipitated with anti-p50-coupled agarose or IgG agarose, blots with anti-p50, anti-p65, anti-p300, anti-NCOA3
[3] = target: Flag-p65 (UniProt Q04206); assay: co-IP; Flag-tagged and Myc-tagged plasmids cotransfected into T47D cells, 48 h; lysis in RIPA buffer with protease inhibitors; immunoprecipitation with anti-Flag agarose; blots with anti-Flag and anti-Myc
[4] = target: RelA/p65 (NF-κB subunit), endogenous (human (endogenous in T47D)) (UniProt Q04206); assay: co-IP; endogenous proteins; T47D cell extracts immunoprecipitated with anti-p65-coupled protein A agarose or IgG agarose, blots with anti-p65, anti-p50, anti-p300, anti-NCOA3; also HME1, T47D and BT549 cells treated with 0, 5 or 10 nM E2 for 4 h

Row | Substance | binding [1] | binding [2] | also measured
1 | Myc-NCOA3 (from UniProt Q9Y6Q9 1-1424) |  |  | binding [3]: no binding
2 | NFKB1/p50 (NF-κB subunit), endogenous (from UniProt P19838 1-433) |  |  | binding [4]: binds
3 | RelA/p65 (NF-κB subunit), endogenous (from UniProt Q04206 1-551) |  | binds | 

The next lines start with results.

Row | binding [1] | binding [2] | Substance | also measured
4 | binds |  | Myc-p300 (from UniProt Q09472 1-2414) | 
5 |  | binds | histone acetyltransferase p300, endogenous (from UniProt Q09472 1-2414) | 
6 | no binding |  | Myc-p65 (from UniProt Q04206 1-551) | 
